Results are given in words; binding and its absence hold for the method and conditions named. Binding seen in cells or lysates may run through a third protein. Some binding calls cover weakened binding; strength is not graded here.
Molecular target: human epidermal growth factor receptor 2 (HER2) (human (endogenous in breast cancer specimens and SK-BR-3)) (UniProt P04626)
Test: proximity ligation; Duolink PLA in SK-BR-3 cells fixed in 10% formalin and permeabilized with 0.1% Triton X-100; anti-MARCKS (D88D11) with anti-HER2 3B5 or 2G11; mouse IgG as negative control

B1: Myristoylated Alanine-Rich C Kinase Substrate (MARCKS) (protein, UniProt P29966 1-332)
chain: MGAQFSKTAAKGEAAAERPGEAAVASSPSKANGQENGHVKVNGDASPAAAESGAKEELQANGSAPAADKEEPAAAGSGAASPSAAEKGEPAAAAAPEAGASPVEKEAPAEGEAAEPGSPTAAEGEAASAASSTSSPKAEDGATPSPSNETPKKKKKRFSFKKSFKLSGFSFKKNKKEAGEGGEAEAPAAEGGKDEAAGGAAAAAAEAGAASGEQAAAPGEEAAAGEEGAAGGDPQEAKPQEAAVAPEKPPASDETKAAEEPSKVEEKKAEEAGASAAACEAPSAAGPGAPPEQEAAPAEEPAAAAASSACAAPSQEAQPECSPEAPPAEAAE
B1 was tested, and the binding was “binds”.
